Test results taken from patent US20230192826A1.
Numbering of substitutions follows the chain as printed. These are yes or no findings as the source states them, for the method shown. Some results given as binding are weak or reduced against the parent protein; the word gives no strength.

Amino acid sequences for entries named in this document (tags omitted). A change or cut given only in a name is not applied to a line headed by its entry.
UniProt P10636: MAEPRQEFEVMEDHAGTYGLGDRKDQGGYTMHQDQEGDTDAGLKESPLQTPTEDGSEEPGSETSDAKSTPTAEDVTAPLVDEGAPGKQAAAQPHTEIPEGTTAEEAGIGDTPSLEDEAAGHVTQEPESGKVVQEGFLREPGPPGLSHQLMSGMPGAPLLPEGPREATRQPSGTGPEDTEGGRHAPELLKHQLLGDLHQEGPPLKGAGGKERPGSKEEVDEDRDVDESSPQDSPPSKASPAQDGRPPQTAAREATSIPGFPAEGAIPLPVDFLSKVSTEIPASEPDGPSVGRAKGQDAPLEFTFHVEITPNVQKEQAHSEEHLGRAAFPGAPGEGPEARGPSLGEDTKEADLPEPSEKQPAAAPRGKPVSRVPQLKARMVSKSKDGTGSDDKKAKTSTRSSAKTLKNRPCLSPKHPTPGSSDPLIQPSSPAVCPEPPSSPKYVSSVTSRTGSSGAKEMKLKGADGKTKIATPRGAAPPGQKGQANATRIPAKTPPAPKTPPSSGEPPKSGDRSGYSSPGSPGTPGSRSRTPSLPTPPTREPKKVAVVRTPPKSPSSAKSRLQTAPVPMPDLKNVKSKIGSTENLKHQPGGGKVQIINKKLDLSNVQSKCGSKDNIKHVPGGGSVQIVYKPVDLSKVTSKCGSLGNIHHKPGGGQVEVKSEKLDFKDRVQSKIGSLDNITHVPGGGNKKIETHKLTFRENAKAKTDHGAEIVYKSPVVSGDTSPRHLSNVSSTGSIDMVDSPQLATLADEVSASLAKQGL

T1: [C]-…-amide antigen peptide (human)
T1 sequence (peptide, C-terminal amide): CKKIETHKLTFREN

B1: anti-tau rabbit IgG clone #45 (Clone 4) (antibody, V domains shown)
VH: QSLEESGGRLVTPGTPLTLTCTVSGIDLSSYAVGWVRQAPGKGLEWIGCIDGRDSAFYASWAKGRFTISKTSTTVDLKITSPTTEDTATYFCARDSGAFNPWGPGTLVTVSS
VL: ARVLTQTPSPVSAAVGGTVTINCQASQSVYDNYLSWYQQKPGQPPKLLIHAVSNLASGVPSRFKGSGSGTQFTLTISDVQCDDAATYSCLGEFYCSSIDCNAFGGGTEVVVKG
B2: anti-tau rabbit IgG Clone 6 (#34) (antibody, V domains shown)
VH: QSVEESGGRLVTPGTPLTLTCTVSGIDLNKNAMIWVRQAPGKGLEYIGNIGTRGTTYYASWTKGRFTISRTSTTVDLKMTSPTTEDTATYFCTRGDIWGPGTLVTVSL
VL: AQVLTQTPSPVSAPLGGTVTINCQSSQSVNNNDLAWYQQKPGQRPKVLIYEASTLASGVSSRFKGSGSGTQFTLTISDVQCDDAATYYCLGEFSCSSADCVAFGGGTELVVKG
B3: anti-tau rabbit IgG Clone 13 (#37) (antibody, V domains shown)
VH: B1 VH with T15G, P16S, V33M, G52R, D54G, S55A, A56T, I79M, P82L, N100D
VL: QIVMTQTPSPVSAAVGGTVTIKCQASQSVYDNYLSWYHQKPGQPPKLLIHAASNLASRVPSRFKGSGSGTQFTLTISDVQCDDAATYYCLGEFSCTTTDCNVFGGGTEVVVKG
B4: anti-tau rabbit IgG Clone 8 (#41) (antibody, V domains shown)
VH: B2 VH with V3M, N29S, K30S, R53H, T62A, R70K, T93S
VL: AQVLTQTPSPVSVAVGGTVTINCQASQSVDNNNNLAWYHQKPGQPPKLLIYEASTLASGVSSRFKGSGSGTQFTLTISGVQCDDAATYYCLGEFSCSSADCVAFGGGTEVVVKG
B5: anti-tau rabbit IgG Clone 7 (#43) (antibody, V domains shown)
VH: B1 VH with L3V, V33M, G34S, G52S, D54G, A56V, F57Y, I79V, N100D
VL: B1 VL with A1Q, R2I, L4M, S9A, P10S, N22S, H50V, V52A, S88Y, I98M
B6: anti-tau rabbit IgG Clone 11 (#47) (antibody, V domains shown)
VH: QSVEESGGRLVPPGTPLTLTCTVSGIDLNNYAMAWVRQAPGKGLEWIGCIDRRGGTFYASWAKGRFTISKTSTTVDLKMTSLTTEDTATYFCARDSGAFDPWGPGTLVTVSS
VL: B3 VL with A13V, S35A, H38Q
B7: anti-tau rabbit IgG Clone 14 (#56) (antibody, V domains shown)
VH: B6 VH with P12T, N30S, A34G
VL: B3 VL with A13V, S35A, H38Q
B8: anti-tau rabbit IgG Clone 5 (#61) (antibody, V domains shown)
VH: B6 VH with P12T, V23A, N29S, N30T
VL: B3 VL with A13V, S35A, H38Q, R58G, Q71E
B9: anti-tau rabbit IgG Clone 10 (#65) (antibody, V domains shown)
VH: B2 VH with N29S, K30S, R53H, T62S, R70K, T93S
VL: B4 VL with P8A, V13A, N22Y, H39Q, G79D, V110M
B10: anti-tau rabbit IgG Clone 17 (#69) (antibody, V domains shown)
VH: B6 VH with P12T, N29S, N30I, A34G, G55A, S60T, M79L
VL: B3 VL with Y33N, S35A, H38Q, K64S
B11: anti-tau rabbit IgG Clone 15 (#77) (antibody, V domains shown)
VH: QSVEESGGRLVTPGGSLTLTCTVSGIDLSSYAMTWVRQAPGKGLEWIGCIDTGGSAYYASWAKGRFTISKTSTTVALKITSPTTEDTATYFCARDTGAFDPWGPGTLVTVSS
VL: QIVMTQTPASVSVAVGGTVTINCQASQSVYDNNLAWYQQKPGQPPKLLIVAASNLPSGVPSRFKGSGSGTQFTLTISDVQCDDAATYYCLGEFSCSSTDCNAFGGGTEVVGKG
B12: anti-tau rabbit IgG Clone 9 (#87) (antibody, V domains shown)
VH: B1 VH with G52S, R53H, S55N, A56T
VL: B1 VL with S88Y
B13: anti-tau rabbit IgG Clone 12 (#5) (antibody, V domains shown)
VH: B1 VH with G52S, R53H, S55N, A56T, G64S
VL: B1 VL with S88Y
B14: anti-tau rabbit IgG Clone 16 (#10) (antibody, V domains shown)
VH: B1 VH with G52S
VL: B1 VL with A14V, S88Y

What follows are binders tested against full length recombinant 2N4R tau (human) (UniProt P10636) (assay: western blot, HEK293F supernatant as primary antibody).

Row | Binder | binding
1 | B1 | binds

The binders below were run against full length recombinant 2N4R tau (human) (UniProt P10636) (assay: ELISA, HEK supernatant 1:50 on coated full length 2N4R tau, anti-rabbit IgG-HRP).

Row | Binder | binding
2 | B2 | binds
3 | B3 | binds
4 | B4 | binds
5 | B5 | binds
6 | B1 | binds
7 | B6 | binds
8 | B7 | binds
9 | B8 | binds
10 | B9 | binds
11 | B10 | binds
12 | B11 | binds
13 | B12 | binds
14 | B13 | binds
15 | B14 | binds

What follows are binders tested against full length recombinant 2N4R tau (human) (UniProt P10636) (assay: western blot with HEK supernatant; recombinant 2N4R tau 200, 67, 22 ng in lanes 1-3).

Row | Binder | binding
16 | B1 | binds

What follows are binders tested against full length recombinant 2N4R tau (human) (UniProt P10636) (assay: western blot, HEK supernatant as primary antibody).

Row | Binder | binding
17 | B1 | binds

Each binder was assayed against full length recombinant 2N4R tau (human) (UniProt P10636) (assay: ELISA, antigen coated, HEK293F supernatant, anti-rabbit IgG-HRP).

Row | Binder | binding
18 | B2 | binds
19 | B3 | binds
20 | B4 | binds
21 | B5 | binds
22 | B1 | binds
23 | B6 | binds
24 | B7 | binds
25 | B8 | binds
26 | B9 | binds
27 | B10 | binds
28 | B11 | binds
29 | B12 | binds
30 | B13 | binds
31 | B14 | binds

Each binder was assayed against T1, [C]-…-amide antigen peptide (human) in the same assay as above.

Row | Binder | binding
32 | B2 | binds
33 | B3 | binds
34 | B4 | binds
35 | B5 | binds
36 | B1 | binds
37 | B6 | binds
38 | B7 | binds
39 | B8 | binds
40 | B9 | binds
41 | B10 | binds
42 | B11 | binds
43 | B12 | binds
44 | B13 | binds
45 | B14 | binds

These binders were tested against T1, [C]-…-amide antigen peptide (human) (assay: ELISA, HEK supernatant 1:50 on coated peptide (SEQ ID NO: 13), anti-rabbit IgG-HRP).

Row | Binder | binding
46 | B2 | binds
47 | B3 | binds
48 | B4 | binds
49 | B5 | binds
50 | B1 | binds
51 | B6 | binds
52 | B7 | binds
53 | B8 | binds
54 | B9 | binds
55 | B10 | binds
56 | B11 | binds
57 | B12 | binds
58 | B13 | binds
59 | B14 | binds
